Results as given in the supplement of paper PMC10849652.
The other results are listed elsewhere or left out.

The chains behind the UniProt entries cited, without tags or fusion partners. Where a name states a change or a piece, a line headed by the entry shows the natural chain unless it says otherwise.
UniProt Q8TBF4: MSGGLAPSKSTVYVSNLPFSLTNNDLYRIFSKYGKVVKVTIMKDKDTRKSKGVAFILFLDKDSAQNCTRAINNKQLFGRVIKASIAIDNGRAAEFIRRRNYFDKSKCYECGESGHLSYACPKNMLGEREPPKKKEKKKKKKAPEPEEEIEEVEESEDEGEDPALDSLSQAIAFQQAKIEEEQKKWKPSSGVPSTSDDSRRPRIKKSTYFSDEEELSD
UniProt Q9H6S0: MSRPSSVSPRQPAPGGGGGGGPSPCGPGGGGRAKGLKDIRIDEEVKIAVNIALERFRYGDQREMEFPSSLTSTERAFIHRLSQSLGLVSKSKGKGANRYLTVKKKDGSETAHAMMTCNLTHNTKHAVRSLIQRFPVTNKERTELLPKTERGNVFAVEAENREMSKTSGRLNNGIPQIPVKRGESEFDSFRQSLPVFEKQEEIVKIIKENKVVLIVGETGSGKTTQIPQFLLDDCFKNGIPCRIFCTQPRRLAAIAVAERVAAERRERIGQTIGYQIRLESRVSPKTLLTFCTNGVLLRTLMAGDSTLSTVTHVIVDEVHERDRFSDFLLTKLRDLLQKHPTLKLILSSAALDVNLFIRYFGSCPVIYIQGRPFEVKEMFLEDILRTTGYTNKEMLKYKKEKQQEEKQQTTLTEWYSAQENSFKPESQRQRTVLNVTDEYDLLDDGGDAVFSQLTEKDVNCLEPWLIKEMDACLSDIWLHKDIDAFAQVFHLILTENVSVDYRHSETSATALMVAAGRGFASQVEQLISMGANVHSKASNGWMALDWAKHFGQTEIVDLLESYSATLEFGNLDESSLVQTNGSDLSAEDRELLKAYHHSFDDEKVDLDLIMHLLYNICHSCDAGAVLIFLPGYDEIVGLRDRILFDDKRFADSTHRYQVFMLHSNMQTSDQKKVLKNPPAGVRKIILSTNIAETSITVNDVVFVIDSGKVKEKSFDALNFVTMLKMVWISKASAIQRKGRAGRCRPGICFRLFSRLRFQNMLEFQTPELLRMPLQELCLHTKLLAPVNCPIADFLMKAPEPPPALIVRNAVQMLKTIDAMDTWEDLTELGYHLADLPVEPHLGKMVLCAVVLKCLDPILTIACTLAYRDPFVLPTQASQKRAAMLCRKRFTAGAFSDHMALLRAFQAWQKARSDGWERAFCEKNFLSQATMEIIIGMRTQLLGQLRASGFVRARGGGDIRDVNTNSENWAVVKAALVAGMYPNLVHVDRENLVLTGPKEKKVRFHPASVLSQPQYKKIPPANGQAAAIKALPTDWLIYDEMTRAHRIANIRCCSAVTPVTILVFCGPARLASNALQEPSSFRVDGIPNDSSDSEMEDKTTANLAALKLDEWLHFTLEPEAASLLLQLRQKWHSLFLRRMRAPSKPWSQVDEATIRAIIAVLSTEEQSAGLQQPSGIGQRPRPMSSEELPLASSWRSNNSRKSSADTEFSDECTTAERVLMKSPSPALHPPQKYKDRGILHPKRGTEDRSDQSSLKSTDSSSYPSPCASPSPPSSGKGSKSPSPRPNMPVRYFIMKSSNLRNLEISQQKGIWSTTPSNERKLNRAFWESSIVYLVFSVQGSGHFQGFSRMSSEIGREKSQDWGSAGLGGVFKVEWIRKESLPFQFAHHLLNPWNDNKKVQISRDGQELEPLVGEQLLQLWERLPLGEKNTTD
UniProt Q9H5J0: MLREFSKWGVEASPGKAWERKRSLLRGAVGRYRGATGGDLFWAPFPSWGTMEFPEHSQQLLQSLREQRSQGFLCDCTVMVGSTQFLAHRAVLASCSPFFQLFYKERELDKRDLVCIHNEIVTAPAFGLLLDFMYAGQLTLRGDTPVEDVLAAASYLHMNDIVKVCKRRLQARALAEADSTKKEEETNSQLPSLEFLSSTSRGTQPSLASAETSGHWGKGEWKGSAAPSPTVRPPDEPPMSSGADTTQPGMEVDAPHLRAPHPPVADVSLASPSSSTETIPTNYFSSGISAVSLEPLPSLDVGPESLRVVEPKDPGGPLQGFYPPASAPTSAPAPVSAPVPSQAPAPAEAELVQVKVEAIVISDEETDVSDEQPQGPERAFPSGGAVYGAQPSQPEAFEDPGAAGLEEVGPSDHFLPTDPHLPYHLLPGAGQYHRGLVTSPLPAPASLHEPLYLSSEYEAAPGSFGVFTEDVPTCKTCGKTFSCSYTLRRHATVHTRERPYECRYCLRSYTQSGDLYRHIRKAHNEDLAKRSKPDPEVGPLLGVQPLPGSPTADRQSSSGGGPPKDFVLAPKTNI
UniProt Q9BYJ9: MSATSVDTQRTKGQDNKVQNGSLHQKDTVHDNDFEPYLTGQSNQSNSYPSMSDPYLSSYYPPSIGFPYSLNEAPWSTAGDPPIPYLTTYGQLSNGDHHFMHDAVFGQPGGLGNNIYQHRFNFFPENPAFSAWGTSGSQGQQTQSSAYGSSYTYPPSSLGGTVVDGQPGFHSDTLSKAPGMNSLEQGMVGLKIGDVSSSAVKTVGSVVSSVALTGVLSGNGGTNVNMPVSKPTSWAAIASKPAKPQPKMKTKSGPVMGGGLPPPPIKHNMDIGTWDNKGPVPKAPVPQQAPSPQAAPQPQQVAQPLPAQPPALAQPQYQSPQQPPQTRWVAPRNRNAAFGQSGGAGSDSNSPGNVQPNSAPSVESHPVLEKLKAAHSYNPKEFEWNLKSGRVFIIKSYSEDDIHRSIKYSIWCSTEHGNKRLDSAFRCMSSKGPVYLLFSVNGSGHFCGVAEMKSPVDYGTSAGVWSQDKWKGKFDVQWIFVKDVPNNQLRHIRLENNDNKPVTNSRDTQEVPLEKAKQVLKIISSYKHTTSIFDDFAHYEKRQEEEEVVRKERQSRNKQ
UniProt O75191: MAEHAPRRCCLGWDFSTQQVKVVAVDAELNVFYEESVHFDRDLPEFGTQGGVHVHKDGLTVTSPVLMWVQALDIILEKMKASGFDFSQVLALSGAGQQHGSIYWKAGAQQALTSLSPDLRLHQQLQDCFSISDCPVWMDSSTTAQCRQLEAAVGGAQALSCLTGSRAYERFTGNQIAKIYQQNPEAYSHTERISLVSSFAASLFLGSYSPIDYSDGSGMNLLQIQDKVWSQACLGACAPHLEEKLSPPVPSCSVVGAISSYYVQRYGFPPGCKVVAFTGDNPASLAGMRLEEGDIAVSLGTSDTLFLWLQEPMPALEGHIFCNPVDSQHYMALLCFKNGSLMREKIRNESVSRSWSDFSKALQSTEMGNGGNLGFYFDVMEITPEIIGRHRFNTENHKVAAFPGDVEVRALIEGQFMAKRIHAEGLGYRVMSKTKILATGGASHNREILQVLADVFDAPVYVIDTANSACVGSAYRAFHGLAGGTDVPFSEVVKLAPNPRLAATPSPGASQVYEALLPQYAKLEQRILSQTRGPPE
UniProt Q9UBW7: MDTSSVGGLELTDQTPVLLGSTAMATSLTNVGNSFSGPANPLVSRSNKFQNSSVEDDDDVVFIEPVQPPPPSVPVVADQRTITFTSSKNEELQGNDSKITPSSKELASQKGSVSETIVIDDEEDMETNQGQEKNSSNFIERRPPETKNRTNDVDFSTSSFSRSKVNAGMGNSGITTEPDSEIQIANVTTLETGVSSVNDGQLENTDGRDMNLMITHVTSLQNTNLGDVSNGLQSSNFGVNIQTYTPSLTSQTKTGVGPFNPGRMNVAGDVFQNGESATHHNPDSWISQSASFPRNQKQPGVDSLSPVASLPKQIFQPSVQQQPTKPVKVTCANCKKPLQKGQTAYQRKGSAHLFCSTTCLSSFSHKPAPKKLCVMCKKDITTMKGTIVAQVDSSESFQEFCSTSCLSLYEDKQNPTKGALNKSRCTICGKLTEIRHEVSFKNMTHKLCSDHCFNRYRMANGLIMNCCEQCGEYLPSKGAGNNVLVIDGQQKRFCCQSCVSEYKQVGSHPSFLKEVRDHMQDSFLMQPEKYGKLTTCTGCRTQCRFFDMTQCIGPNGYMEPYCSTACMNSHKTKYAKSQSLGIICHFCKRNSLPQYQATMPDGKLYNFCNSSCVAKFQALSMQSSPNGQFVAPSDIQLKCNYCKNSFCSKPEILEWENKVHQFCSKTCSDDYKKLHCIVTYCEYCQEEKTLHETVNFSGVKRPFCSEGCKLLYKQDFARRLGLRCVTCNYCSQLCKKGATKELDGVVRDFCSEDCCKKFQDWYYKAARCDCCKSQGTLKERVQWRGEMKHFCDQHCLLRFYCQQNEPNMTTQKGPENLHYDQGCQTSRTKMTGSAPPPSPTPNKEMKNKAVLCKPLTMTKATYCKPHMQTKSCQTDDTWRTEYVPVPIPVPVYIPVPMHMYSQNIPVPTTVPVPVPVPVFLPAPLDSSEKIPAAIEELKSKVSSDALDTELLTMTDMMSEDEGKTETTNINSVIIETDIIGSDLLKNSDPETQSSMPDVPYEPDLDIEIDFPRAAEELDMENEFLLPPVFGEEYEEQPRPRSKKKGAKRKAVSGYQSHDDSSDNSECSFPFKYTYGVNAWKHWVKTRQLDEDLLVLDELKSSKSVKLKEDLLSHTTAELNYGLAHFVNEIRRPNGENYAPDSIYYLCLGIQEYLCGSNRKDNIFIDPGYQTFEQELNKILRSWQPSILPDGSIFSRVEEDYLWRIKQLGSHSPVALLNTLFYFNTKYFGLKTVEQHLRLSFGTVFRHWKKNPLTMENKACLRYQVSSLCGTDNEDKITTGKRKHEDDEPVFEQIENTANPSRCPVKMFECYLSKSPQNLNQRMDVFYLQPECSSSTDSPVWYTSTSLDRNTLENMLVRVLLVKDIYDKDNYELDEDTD
UniProt Q8WW38: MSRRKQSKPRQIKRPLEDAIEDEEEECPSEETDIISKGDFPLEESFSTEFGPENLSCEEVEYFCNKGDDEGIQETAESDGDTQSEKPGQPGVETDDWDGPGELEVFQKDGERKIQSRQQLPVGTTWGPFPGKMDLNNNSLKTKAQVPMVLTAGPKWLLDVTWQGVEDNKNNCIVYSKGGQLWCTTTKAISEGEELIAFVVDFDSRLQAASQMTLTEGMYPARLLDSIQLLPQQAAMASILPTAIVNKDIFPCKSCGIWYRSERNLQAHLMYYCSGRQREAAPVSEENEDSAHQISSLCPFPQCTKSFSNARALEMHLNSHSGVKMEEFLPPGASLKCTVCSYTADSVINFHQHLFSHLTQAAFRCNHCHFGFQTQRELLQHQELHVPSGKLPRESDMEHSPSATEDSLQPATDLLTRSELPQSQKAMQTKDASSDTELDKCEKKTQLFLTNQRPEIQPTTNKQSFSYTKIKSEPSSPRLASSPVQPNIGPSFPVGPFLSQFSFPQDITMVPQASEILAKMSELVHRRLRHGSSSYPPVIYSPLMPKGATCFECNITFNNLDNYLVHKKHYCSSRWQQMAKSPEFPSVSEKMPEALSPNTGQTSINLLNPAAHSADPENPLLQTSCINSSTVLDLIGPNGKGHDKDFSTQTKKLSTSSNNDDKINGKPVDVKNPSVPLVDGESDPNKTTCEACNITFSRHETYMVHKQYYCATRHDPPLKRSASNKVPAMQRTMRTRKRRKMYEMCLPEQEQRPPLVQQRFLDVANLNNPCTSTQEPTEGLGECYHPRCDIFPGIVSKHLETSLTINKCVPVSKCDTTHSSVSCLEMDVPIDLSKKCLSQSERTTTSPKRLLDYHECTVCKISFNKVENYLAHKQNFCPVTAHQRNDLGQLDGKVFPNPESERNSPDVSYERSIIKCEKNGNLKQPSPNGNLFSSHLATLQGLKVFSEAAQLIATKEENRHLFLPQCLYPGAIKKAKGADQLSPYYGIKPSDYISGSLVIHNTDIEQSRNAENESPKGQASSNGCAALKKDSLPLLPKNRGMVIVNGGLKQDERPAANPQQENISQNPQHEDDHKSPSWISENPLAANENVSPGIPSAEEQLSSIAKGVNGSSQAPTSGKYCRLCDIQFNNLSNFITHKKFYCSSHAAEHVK
UniProt P58557: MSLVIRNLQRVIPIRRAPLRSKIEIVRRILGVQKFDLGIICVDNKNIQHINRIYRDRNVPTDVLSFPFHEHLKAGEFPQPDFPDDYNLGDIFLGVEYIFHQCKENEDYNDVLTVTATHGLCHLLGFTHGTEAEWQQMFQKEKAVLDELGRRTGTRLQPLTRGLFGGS
UniProt Q969J2: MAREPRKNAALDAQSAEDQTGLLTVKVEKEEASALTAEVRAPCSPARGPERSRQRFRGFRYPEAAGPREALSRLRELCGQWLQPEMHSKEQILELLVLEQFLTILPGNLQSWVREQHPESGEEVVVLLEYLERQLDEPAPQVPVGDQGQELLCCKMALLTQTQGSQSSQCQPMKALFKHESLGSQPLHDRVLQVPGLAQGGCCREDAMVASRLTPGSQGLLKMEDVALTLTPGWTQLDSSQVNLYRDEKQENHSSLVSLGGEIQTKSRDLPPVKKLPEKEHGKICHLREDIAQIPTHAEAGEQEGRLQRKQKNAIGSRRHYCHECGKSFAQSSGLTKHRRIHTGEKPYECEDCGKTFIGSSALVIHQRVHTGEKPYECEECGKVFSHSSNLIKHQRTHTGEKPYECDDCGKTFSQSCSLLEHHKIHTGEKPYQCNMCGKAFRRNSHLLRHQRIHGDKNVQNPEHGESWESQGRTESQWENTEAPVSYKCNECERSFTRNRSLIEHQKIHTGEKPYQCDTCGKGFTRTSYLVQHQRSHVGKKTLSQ

Legend:
Assay in all cases: log2 fold change, soluble protein after heating vs DMSO (PISA); higher = thermal stabilisation; K562 cells, 10 uM, 30 min; active = over 0.2 and 3.5 SD of the protein, either way, in both replicates (recomputed)
[1] = compound: CS(=O)(=O)c1ccc(-c2cnc(N)c(C(=O)Nc3ccccc3)n2)cc1
How it was run: (§1)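 K562 cells at 2×10^6 cells/mL were exposed to 10 μM compound for 30 min, then aliquots were heated for 3 min across 48°C-58°C, pooled, and extracted in PBS containing 0.5% NP-40 at 4°C. The supernatant after 21,000xg for 90 min was taken as soluble protein and measured by TMTpro 16plex LC-MS/MS with channel sums equalised. Thermal stability is reported relative to control samples, with values from duplicates. Fold changes are given on a log2 scale.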

crizotinib = compound: C[C@@H](Oc1cc(-c2cnn(C3CCNCC3)c2)cnc1N)c1c(Cl)ccc(F)c1Cl [crizotinib]
How it was run: as §1

[2] = compound: C[C@@H]1COCCN1C2=NC(=NC(=C2)C3(CC3)S(=O)(=O)C)C4=C5C=CNC5=CC=C4
How it was run: as §1

[3] = compound: C[C@H](C1=CC=C(C=C1)C(=O)NC2=C3C=CNC3=NC=C2)N
How it was run: as §1

gandotinib = compound: Cc1cc(Nc2cc(CN3CCOCC3)c3nc(C)c(Cc4ccc(Cl)cc4F)n3n2)n[nH]1 [gandotinib]
How it was run: as §1

[4] = compound: Cc1cc(SCc2sc(-c3ccc(C(F)(F)F)cc3)nc2C)ccc1OCC(=O)O
How it was run: as §1

doramapimod = compound: Cc1ccc(-n2nc(C(C)(C)C)cc2NC(=O)Nc2ccc(OCCN3CCOCC3)c3ccccc23)cc1 [doramapimod]
How it was run: as §1

ispinesib = compound: Cc1ccc(C(=O)N(CCCN)[C@@H](c2nc3cc(Cl)ccc3c(=O)n2Cc2ccccc2)C(C)C)cc1 [ispinesib]
How it was run: as §1

duvelisib = compound: C[C@H](Nc1ncnc2nc[nH]c12)c1cc2cccc(Cl)c2c(=O)n1-c1ccccc1 [duvelisib]
How it was run: as §1

tozasertib = compound: Cc1cc(Nc2cc(N3CCN(C)CC3)nc(Sc3ccc(NC(=O)C4CC4)cc3)n2)n[nH]1 [tozasertib]
How it was run: as §1

Measured: log2 fold change

YWHAZ (UniProt P63104)
inactive: [1] -0.017 | crizotinib 0.008 | [2] 0.011 | [3] -0.178 | gandotinib 0.084 | [4] 0.012 | doramapimod 0.013 | ispinesib 0.149

YY1 (UniProt P25490)
inactive: [1] -0.061 | crizotinib -0.021 | [2] 0.02 | [3] -0.071 | gandotinib -0.012 | [4] 0.002 | doramapimod -0.037 | ispinesib -0.147

ZNF106 (UniProt Q9H2Y7)
inactive: [1] 0.053 | duvelisib 0.07 | [4] -0.005

ZNF131 (UniProt P52739)
inactive: [1] 0.069 | crizotinib 0.032 | [2] -0.107 | doramapimod 0.273 | ispinesib 0.049

ZDHHC4 (UniProt Q9NPG8)
inactive: [1] -0.085 | crizotinib -0.033 | [2] 0.095 | doramapimod -0.012

ZCCHC9 (UniProt Q8N567)
inactive: [1] 0.1 | crizotinib 0.032 | [2] -0.381 | [3] 0.359 | gandotinib 0.265 | doramapimod 0.169 | ispinesib -0.353

ZFYVE21 isoform 2 (UniProt Q9BQ24)
inactive: duvelisib -0.258 | gandotinib -0.226 | tozasertib -0.03 | [4] 0.215 | ispinesib -0.079

ZCRB1 (UniProt Q8TBF4)
inactive: [1] 0.232 | gandotinib 0.209

YTHDC2 (UniProt Q9H6S0)
inactive: crizotinib 0.015 | [2] -0.241 | gandotinib 0.301 | doramapimod 0.299

ZNF22 (UniProt P17026)
inactive: crizotinib 0.044 | [3] 0.219 | duvelisib 0.138 | tozasertib 0.12 | [4] -0.09 | doramapimod 0.103 | ispinesib 0.058

ZC2HC1A (UniProt Q96GY0)
inactive: crizotinib -0.045 | [2] -0.138 | [3] 0.134 | duvelisib 0.098 | gandotinib 0.079 | tozasertib -0.065 | [4] -0.153 | doramapimod 0.161 | ispinesib 0.003

ZDHHC9 (UniProt Q9Y397)
inactive: gandotinib 0.123 | ispinesib -0.114

ZMYND8 isoform 19 (UniProt Q9ULU4)
inactive: crizotinib -0.277 | [2] 0.138 | [3] 0.015 | duvelisib -0.122 | [4] 0.114 | doramapimod 0.112

ZC3H13 (UniProt Q5T200)
inactive: crizotinib -0.024 | [2] -0.025 | [3] 0.562 | duvelisib 0.2 | gandotinib 0.01 | tozasertib -0.121 | [4] -0.351 | doramapimod 0.23 | ispinesib -0.372

XP32 (UniProt Q5T750)
inactive: [3] -0.258 | duvelisib -0.441 | gandotinib -0.109 | [4] -0.913 | ispinesib 0.364

XRN1 (UniProt Q8IZH2)
inactive: crizotinib -0.27 | [2] 0.257 | [3] 0.394 | duvelisib -0.113 | gandotinib -0.063 | tozasertib -0.133 | [4] 0.076 | doramapimod 0.159 | ispinesib -0.225

YIF1A (UniProt O95070)
inactive: crizotinib 0.183 | [3] -0.037 | duvelisib 0.069 | gandotinib 0.08 | tozasertib 0.075 | [4] -0.045 | doramapimod 0.039 | ispinesib 0.089

ZC3H11A (UniProt O75152)
inactive: [3] -0.066 | duvelisib -0.179 | gandotinib 0.241 | [4] 0.331

XYLT2 (UniProt Q9H1B5)
inactive: crizotinib 0.022 | [2] 0.451 | [3] 0.095 | doramapimod 0.082

ZDHHC12 isoform 3 (UniProt Q96GR4)
inactive: crizotinib 0.148 | duvelisib 0.157 | tozasertib -0.154 | [4] -0.1 | doramapimod -0.148

Two entries picked at random from those above:
XRN1 (UniProt Q8IZH2)
inactive: crizotinib -0.27 | [2] 0.257 | [3] 0.394 | duvelisib -0.113 | gandotinib -0.063 | tozasertib -0.133 | [4] 0.076 | doramapimod 0.159 | ispinesib -0.225

ZC3H11A (UniProt O75152)
inactive: [3] -0.066 | duvelisib -0.179 | gandotinib 0.241 | [4] 0.331

Following part

ZBTB33 (UniProt Q86T24)
inactive: duvelisib 0.293 | [4] -0.068

ZFYVE28 (UniProt Q9HCC9)
inactive: crizotinib -0.299 | doramapimod -0.225

ZFX isoform 3 (UniProt P17010)
inactive: tozasertib 0.304

ZBTB3 (UniProt Q9H5J0)
inactive: crizotinib 0.199 | [3] -0.345 | gandotinib -0.022 | tozasertib -0.126 | doramapimod -0.034 | ispinesib -0.014

YTHDF1 (UniProt Q9BYJ9)
inactive: crizotinib -0.257 | [2] -0.43 | doramapimod 0.12

ZFC3H1 (UniProt O60293)
inactive: [1] 0.131 | ispinesib 0.014

ZBTB14 (UniProt O43829)
inactive: [3] 0.236 | tozasertib -0.274 | ispinesib 0.093

XPC (UniProt Q01831)
inactive: crizotinib -0.041 | [2] -0.27 | [3] 0.403 | doramapimod -0.075 | ispinesib -0.441

XYLB (UniProt O75191)
inactive: [2] 0.097

ZDHHC8 isoform 3 (UniProt Q9ULC8)
inactive: crizotinib -0.187 | [2] 0.284 | [4] 0.031 | doramapimod 0.359

YWHAZ (UniProt E7ESK7)
inactive: crizotinib 0.081 | [2] 0.165 | [3] 0.179 | [4] -0.02 | doramapimod 0 | ispinesib -0.11

XRCC2 (UniProt O43543)
inactive: [2] 0.135 | [3] -0.028 | duvelisib 0.036 | [4] 0.064

ZMYM2 (UniProt Q9UBW7)
inactive: crizotinib -0.573 | duvelisib 0.037 | [4] -0.093 | doramapimod -0.12

ZFPM2 (UniProt Q8WW38)
inactive: [3] -0.005 | tozasertib 0.011

YIPF2 (UniProt Q9BWQ6)
inactive: [2] -0.007 | [3] -0.107 | tozasertib -0.194 | ispinesib -0.133

ZBTB7B isoform 2 (UniProt O15156)
inactive: [1] 0.096 | tozasertib 0.061

YBX1 (UniProt C9J5V9)
inactive: crizotinib 0.028 | doramapimod 0.082

YBEY (UniProt P58557)
inactive: gandotinib 0.195 | ispinesib -0.426

ZKSCAN3 (UniProt Q9BRR0)
inactive: [3] 0.24

XPA (UniProt P23025)
inactive: [2] 0.08 | gandotinib 0.021 | tozasertib -0.196 | ispinesib -0.132

ZFYVE26 (UniProt Q68DK2)
inactive: [3] 0.05

ZKSCAN4 (UniProt Q969J2)
inactive: [3] 0.186 | tozasertib 0.27 | ispinesib 0.338

ZDHHC7 isoform 2 (UniProt Q9NXF8)
inactive: crizotinib -0.131 | [2] -0.037 | [3] -0.065 | gandotinib 0.034 | [4] -0.075 | doramapimod 0.113 | ispinesib 0.126

ZDHHC6 (UniProt Q9H6R6)
inactive: [2] 0.067 | gandotinib -0.018

YES1 (UniProt P07947)
inactive: [2] -0.035 | [3] 0 | gandotinib -0.447 | [4] 0.06 | doramapimod 0.006 | ispinesib -0.097
active: crizotinib -0.576
